# Results of single-concentration screens

Source: ChEMBL document CHEMBL3988442, “University of Dundee, Small-Polar-MMV Screening Library” (2021).

Mtb glucose medium: 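Phenotypic screen: M. tuberculosis growth, glucose 7H9 medium, 3 days; the read-out is not stated. Tested at 50 µM. Direction is inferred from retests: higher values go with more growth inhibition. Size under these conditions: about 69,000 compounds, about 760 of them at 50% or above in at least one test.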
Mtb cholesterol medium: 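Growth of Mycobacterium tuberculosis over 4 days (cholesterol / DPPC medium with tyloxapol); the read-out is not stated. Compounds at 50 µM. Higher reads as more growth inhibition (inferred: compounds with an IC50 in retests scored well above the rest). Size under these conditions: about 69,000 compounds, about 370 of them at 50% or above in at least one test.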

Values are the deposited “Percent Effect”, in %. The controls that fix the scale are not given in the record; negative values are as filed. Compounds were drawn at random from those tested, without regard to their results. Two or more numbers in one place are separate tests of the same structure; such repeats can differ widely.

* O=C1N(CC2CC2)C(c2c[nH]nc2-c2cccnc2)NC12CCCC2 (stereo not given) : Mtb glucose medium: 1.223% & -2.708%; Mtb cholesterol medium: -4.762%
* COCCN1CCN(Cc2cnc(C3(C)CCCCO3)nc2)CC1 (stereo not given) : Mtb glucose medium: -17.4%; Mtb cholesterol medium: -9.012% & -10.84%
* Cc1oncc1C(=O)N1CC2CC1(C(=O)N(C)C)C2 : Mtb glucose medium: -32.77%; Mtb cholesterol medium: -5.582%
* Cc1nc(C)n(C2CCCN(C(=O)c3ccc(O)nc3)C2)n1 (stereo not given) : Mtb glucose medium: -9.227%; Mtb cholesterol medium: -4.883%
* CCN(C)C[C@@H]1CN(C(=O)NC2CCCCC2)C[C@@H]1CO : Mtb glucose medium: 7.713%; Mtb cholesterol medium: 10.18%
* CC(C)(C)c1noc(CN2CCCCC2Cn2cncn2)n1 (stereo not given) : Mtb glucose medium: 23.61%; Mtb cholesterol medium: -7.025%
* COCC1CN(Cc2ccc(OC)cc2)S(=O)(=O)c2cnccc2O1 (stereo not given) : Mtb glucose medium: -9.719%; Mtb cholesterol medium: -28.87%
* CCn1cc(NC(=O)NCCc2ccc3c(c2)OCCO3)cn1 : Mtb glucose medium: 5.137%; Mtb cholesterol medium: -1.344%
* O=C(O)C(F)(F)F.[H][C@@]12COC[C@@H](NS(C)(=O)=O)[C@]1([H])CN(Cc1ccc(C)o1)C2 : Mtb glucose medium: 19.58%; Mtb cholesterol medium: 21.13%
* Cc1cc(C)n(CC2CN(CCC(=O)NC3CCCCC3)CCO2)n1 (stereo not given) : Mtb glucose medium: -1.607%; Mtb cholesterol medium: -18.15%
* CS(=O)(=O)NCC1CCCN(C(=O)c2ccc3c(c2)CCCC3)C1 (stereo not given) : Mtb glucose medium: -39.44%; Mtb cholesterol medium: -9.068% & -5.857%
* O=c1[nH]nc(CNCc2ccc(OC34CCCN(CC3)C4)cc2)[nH]1 (stereo not given) : Mtb glucose medium: 4.117%; Mtb cholesterol medium: 15.2%
* CCNC(=O)[C@@H]1C[C@H](NC(=O)c2cncnc2C)CN1Cc1ccsc1 : Mtb glucose medium: -22.27%; Mtb cholesterol medium: -30.08%
* O=C(O)C(F)(F)F.[H][C@@]12CN(Cc3csc(C)n3)C[C@]1([H])CN(C(=O)c1cccn1C)C2 : Mtb glucose medium: -27.18%; Mtb cholesterol medium: -21.75%
* [H][C@@]12CCC(=O)N(CCc3c[nH]cn3)[C@]1([H])CCN(Cc1cccc(F)c1)C2 : Mtb glucose medium: 6.115%; Mtb cholesterol medium: -8.532% & 1.938%
* CCn1cc2c(n1)C(COC)CN(Cc1ccoc1)C2 (stereo not given) : Mtb glucose medium: 38.03%; Mtb cholesterol medium: -3.772%
* CCN(CC)c1nc2sc(C(=O)N3CCNC(=O)C3)cc2s1 : Mtb glucose medium: 7.453%; Mtb cholesterol medium: -2.04%
* O=C(O)C(F)(F)F.[H][C@@]12CCCO[C@]1([H])[C@H](NC(=O)c1cscn1)CN2CC1CC1 : Mtb glucose medium: 27.01%; Mtb cholesterol medium: 14.41%
* CCC1(CO)CCCN(C(=O)c2cc(COc3cccc(F)c3)[nH]n2)C1 (stereo not given) : Mtb glucose medium: 17.71%; Mtb cholesterol medium: 1.676% & -0.7354%
* CSc1ccc(NS(=O)(=O)c2cnn(C)c2)cn1 : Mtb glucose medium: 7.183%; Mtb cholesterol medium: -14.09%
* COCc1nccc(C2CCCN(Cc3ccc(SC)cc3)C2)n1 (stereo not given) : Mtb glucose medium: 2.021%; Mtb cholesterol medium: -0.5705%
* Clc1ccc2cccnc2c1CN1CCn2c(nnc2C2CC2)C1 : Mtb glucose medium: -10.02%; Mtb cholesterol medium: 15.47%
* COc1nn(C)cc1C(=O)N1CCC(C)CC1 : Mtb glucose medium: -31.02%; Mtb cholesterol medium: -16.12%
* Cc1nncn1CCNC(=O)C1SCCc2sccc21 (stereo not given) : Mtb glucose medium: -54.38% & 13.03%; Mtb cholesterol medium: -17.13%
* CC[C@H](C)Nc1nccc(-c2cnc3sc(C)c(C)n3c2=O)n1 : Mtb glucose medium: -19.11%; Mtb cholesterol medium: -11.84%
* Cn1nnc2c1CCN(Cc1ccoc1)C2COCc1ccccc1.O=C(O)C(F)(F)F (stereo not given) : Mtb glucose medium: 10.26% & 1.162%; Mtb cholesterol medium: -0.9313%
* Cc1ccc(CN2CCCC23CCN(S(=O)(=O)c2ccccc2)C3)o1 (stereo not given) : Mtb glucose medium: 0.7285%; Mtb cholesterol medium: -18.85%
* CC(C)(C)C(=O)N1CCCC(c2ncncc2-c2ccncc2)C1 (stereo not given) : Mtb glucose medium: 26.22%; Mtb cholesterol medium: -11.93%
* CC(C)(C)CN(CCC#N)Cn1cc(Cl)cn1 : Mtb glucose medium: 10.71%; Mtb cholesterol medium: -5.574%

3 of the entries, repeated:

compound	Mtb glucose medium	Mtb cholesterol medium
O=C1N(CC2CC2)C(c2c[nH]nc2-c2cccnc2)NC12CCCC2 (stereo not given)	1.223% & -2.708%	-4.762%
COCCN1CCN(Cc2cnc(C3(C)CCCCO3)nc2)CC1 (stereo not given)	-17.4%	-9.012% & -10.84%
COCC1CN(Cc2ccc(OC)cc2)S(=O)(=O)c2cnccc2O1 (stereo not given)	-9.719%	-28.87%